# Reference: the supplement of paper PMC10735217
# Where a name gives a salt, the structure may show the parent alone. Some of the results follow. Repeats in this data set agree poorly, so a single value says little.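 Human kidney-derived cells stably carry a construct in which eight TEAD-binding elements drive luciferase, measured by luminescence in a drug-repurposing library screen. A hit is any compound whose signal exceeds the plate mean by more than five robust Z scores.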
# System: HEK293A TEAD-LUC reporter
# Assay: TEAD-luciferase reporter activity (YAP activation), robust Z score vs plate; higher = stronger YAP/TEAD activation
# Settings: 24 h
Structure (SMILES),TEAD-luciferase reporter activity (compound concentration: 200 nM),TEAD-luciferase reporter activity (compound concentration: 10 uM),TEAD-luciferase reporter activity (compound concentration: 2 uM)
CO/N=C(/C(=O)NC1C(=O)N2C(C(=O)[O-])=C(CSc3nc(=O)c(O)nn3C)CSC12)c1csc(N)n1 (stereo unspecified) [ceftriaxone],inactive: -0.87,inactive: 1.13,–
CC(=O)NCCC(=O)N1Cc2ccccc2CC2(CCCCN2CC2CCNC2)C1 (stereo unspecified),inactive: -1.3,inactive: -1,–
CC(C)=CCC/C(C)=C/CC(C/C=C(\C)CCC=C(C)C)(P(=O)([O-])[O-])P(=O)([O-])[O-] [Digeranyl bisphosphonate],inactive: 0.529,inactive: 1.11,inactive: 0.289
C[C@H](C(=O)O)c1cccc(NC(=O)NCC(=O)N2[C@@H](c3ccccc3F)SC[C@H]2C(=O)OC(C)(C)C)c1,inactive: -1.53,inactive: -1.04,inactive: 0.925
CCCCc1nc(Cl)c(C(=O)OC(C)OC(=O)OCC)n1Cc1ccc(-c2ccccc2-c2nn[nH]n2)cc1 (stereo unspecified) [Elisartan potassium],inactive: -0.265,inactive: -0.357,inactive: -0.591
NS(=O)(=O)c1cc2c(cc1C(F)(F)F)NC=NS2(=O)=O,inactive: -0.955,inactive: 0.194,inactive: -0.778
CC(=O)N(OCc1ccccc1)[C@@H]1c2cc(C#N)ccc2OC(C)(C)[C@H]1O,inactive: -1.01,inactive: 3.18,inactive: -0.551
O=C(CN1C(=O)c2ccccc2C1=O)NC1CCN(CCc2ccccc2)CC1,inactive: -0.776,inactive: 0.295,inactive: -0.605
CC1CCN(Cc2nc3c(c(=O)n(C)c(=O)n3C)n2CC(=O)c2ccccc2)CC1,inactive: -0.378,inactive: 1.14,inactive: -1.9
CC[N+](C)(CC)CC(O)COCC1COc2ccccc2O1 (stereo unspecified),inactive: -1.84,inactive: 4.97,inactive: 0.405
COc1cc(N)cn[n+]1-c1ccccc1 [Amezinium methylsulfate],inactive: -2.33,inactive: -0.71,inactive: -1.56
C[C@H](NC(=O)[C@@H](Cc1ccc2ccccc2c1)NC(=O)[C@@H](C)N)C(=O)N[C@@H](Cc1c[nH]c2ccccc12)C(=O)N[C@H](Cc1ccccc1)C(=O)N[C@@H](CCCCN)C(N)=O [Pralmorelin],inactive: -1.27,inactive: -0.547,inactive: 1.01
CCN(CCNc1ccc(C)c2sc3ccccc3c(=O)c12)CC(C)(C)O,active: 7.5,inactive: 1.49,inactive: -0.627
CO[C@@H](C)Cn1c(=O)n(C)c2cnc3ccc(-c4cncc(C(C)(C)O)c4)cc3c21,inactive: -0.409,inactive: -0.456,inactive: -1.29
CC(/C=C/C=C(\C)c1cc(C(C)(C)C)cc(C(C)(C)C)c1)=C\C(=O)O,inactive: 0.595,inactive: -0.27,inactive: 0.362
C#C[C@]1(O)CC[C@H]2[C@@H]3CCC4=CCCC[C@@H]4[C@H]3CC[C@@]21C,inactive: -0.306,inactive: -0.544,–
C#C[C@]1(O)CC[C@H]2[C@@H]3CCC4=CCCC[C@@H]4[C@H]3CC[C@@]21C [Lynestrenol],–,–,inactive: -1.52
O=C(NC1CCN(CCc2c[nH]c3ccccc23)CC1)c1ccccc1 [indoramin],inactive: -0.144,inactive: 0.479,inactive: 0.303
COC(=O)C1(OC(=O)c2cncn2[C@H](C)c2ccccc2)CC1 [Cyclopropyl-methoxycarbonyl metomidate],inactive: 1.18,inactive: 0.0712,inactive: -0.216
CCOC(=O)C(C)(C)CCCOc1ccc2c(c1)C=C(c1nccn1C)CC2,inactive: 0.899,inactive: -0.817,inactive: 1.34
COc1nnc(-c2cc3c([nH]c2=O)CCN(Cc2ccccc2)C3)o1,inactive: -2.37,inactive: 0.0102,inactive: -1.35
CC(C)(CCCCCCCCCCC(C)(C)CC(=O)O)CC(=O)O,inactive: -0.42,inactive: -0.833,inactive: -1.36
CC(CCc1ccc2c(c1)OCO2)NN (stereo unspecified),inactive: -0.925,inactive: -0.0513,inactive: -0.143
CCc1ccc(CCOc2ccc(Cc3sc(O)nc3O)cc2)nc1 [pioglitazone hydrochloride],–,–,inactive: -0.547
CCCCNCC(O)c1cc(-c2ccc(C(F)(F)F)cc2)nc(-c2ccc(C(F)(F)F)cc2)c1 (stereo unspecified),inactive: -0.947,inactive: -0.21,inactive: -0.0456
CCS(=O)(=O)c1ccc2[nH]c(Oc3ccc(-c4ccccc4)nc3)nc2c1,inactive: -0.657,inactive: 0.77,inactive: 2.08
CCOC(=O)CNC(=O)CCCCSc1[nH]cnc2ncnc1-2 [butocin],inactive: 4.74,inactive: -0.947,inactive: -0.748

# Part of the list above, bar-delimited.
Structure (SMILES) | TEAD-luciferase reporter activity (compound concentration: 200 nM) | TEAD-luciferase reporter activity (compound concentration: 10 uM) | TEAD-luciferase reporter activity (compound concentration: 2 uM)
CC[N+](C)(CC)CC(O)COCC1COc2ccccc2O1 (stereo unspecified) | inactive: -1.84 | inactive: 4.97 | inactive: 0.405
CCN(CCNc1ccc(C)c2sc3ccccc3c(=O)c12)CC(C)(C)O | active: 7.5 | inactive: 1.49 | inactive: -0.627
C#C[C@]1(O)CC[C@H]2[C@@H]3CCC4=CCCC[C@@H]4[C@H]3CC[C@@]21C | inactive: -0.306 | inactive: -0.544 | –

# Following part:

Structure (SMILES),TEAD-luciferase reporter activity (compound concentration: 200 nM),TEAD-luciferase reporter activity (compound concentration: 10 uM),TEAD-luciferase reporter activity (compound concentration: 2 uM)
O=C1c2cc(Cl)ccc2OC2CCON12 (stereo unspecified) [seclazone],active: 5.36,inactive: 0.534,inactive: 3.14
CCOc1cc2ncc(C#N)c(Nc3ccc(F)c(Cl)c3)c2cc1NC(=O)/C=C/CN(C)C [pelitinib],inactive: -0.329,inactive: -1.08,inactive: -1.34
OC(c1ccccc1)(c1ccccc1)[C@@H]1C[C@H]1c1ccncc1,inactive: 0.73,inactive: -0.536,inactive: -0.266
CNCCCN1c2ccccc2CCc2ccc(Cl)cc21 [chlordesipramine],inactive: -0.66,inactive: -0.478,inactive: 2.7
CN(C)CCSC(=O)N(c1ccccc1)c1ccccc1,inactive: -1.79,inactive: 0.95,inactive: 0.695
Nc1ncccc1-c1nc2ccc(-c3ccccc3)nc2n1-c1ccc(C2(N)CCC2)cc1,inactive: 0.62,inactive: 1.46,inactive: -0.957
[Cl][Pt-2]1([Cl])([Cl])([Cl])[NH2+]C2CCCCC2[NH2+]1 (stereo unspecified) [Ormaplatin],inactive: -1.53,inactive: 1.36,inactive: -1.05
NC(=O)N/N=C/c1ccc(Oc2ccc(F)cc2)cc1,inactive: -0.285,inactive: -0.0676,inactive: -1.94
O[C@@H]1[C@H](O)[C@@H](CSc2ccccc2F)O[C@H]1n1cnc2c(N[C@@H]3CCC[C@H]3O)ncnc21,inactive: -1.84,inactive: -0.11,inactive: -0.302
CC(=O)NC[C@H]1CN(c2ccc(C3=CCN(C(=O)CO)CC3)c(F)c2)C(=O)O1,inactive: -1.82,inactive: 1.5,inactive: -1.68
NC(=O)c1cnccn1 [Pyrazinamide],inactive: 2.01,inactive: -0.928,inactive: -1.46
O=C(NC1CC1)c1cn(-c2cccc(C#Cc3ccc[n+]([O-])c3)c2)c2ncccc2c1=O,inactive: -1.66,inactive: -1.38,inactive: -0.878
COc1ccc(-c2noc(CC(=O)O)c2-c2ccc(OC)cc2)cc1 [mofezolac],inactive: -1.9,inactive: 1.92,inactive: 1.45
O=C(O)CCC(=O)N1Cc2ccccc2CC2(CCCCN2Cc2ccccc2)C1 (stereo unspecified),inactive: 0.875,inactive: 2.15,–
Cn1cncc1[C@](N)(c1ccc(Cl)cc1)c1ccc2c(c1)c(-c1cccc(Cl)c1)cc(=O)n2C [tipifarnib],inactive: 2.67,inactive: -0.0915,inactive: 1.75
CCOC(=O)Cc1cc(Cl)c(Oc2ccc(C(=O)NC(C)(C)C)cc2NS(=O)(=O)c2c(Cl)cccc2Cl)cc1F,inactive: -0.759,inactive: 1.47,inactive: 0.39
CCOc1ccc(Cc2cc([C@@H]3O[C@H](CO)[C@@H](O)[C@H](O)[C@H]3O)ccc2Cl)cc1 [Dapagliflozin],inactive: -2.34,inactive: -0.993,inactive: -0.753
O=C(O)COc1ccc(C(=O)CNC(=O)c2cc3c(s2)CCNC3)cc1OCC(=O)O,inactive: -0.159,active: 5.11,inactive: -0.902
C[N+]1(C)[C@@H]2C[C@@H](OC(=O)C(O)(c3cccs3)c3cccs3)C[C@H]1[C@@H]1O[C@@H]12 [tiotropium bromide],–,–,inactive: -1.53
C[N+]1(C)[C@@H]2C[C@@H](OC(=O)C(O)(c3cccs3)c3cccs3)C[C@H]1[C@@H]1O[C@@H]12 [Tiotropium Bromide hydrate],inactive: -1.78,inactive: 1.04,–
Cc1c(O)c(C)c2sc(NCc3ccc(S(N)(=O)=O)cc3)nc2c1C,inactive: -1.51,inactive: -1.43,inactive: -0.843
COC[C@@H](c1ccc(C(F)(F)F)cc1)N1CCN(C2(C)CCN(C(=O)c3c(C)ncnc3C)CC2)C[C@@H]1C [Vicriviroc Malate],inactive: -0.493,inactive: 1.06,inactive: -1.57
CC(=O)OC1C(=O)N(CCN(C)C)c2ccc(C)cc2SC1c1ccc(C)cc1 (stereo unspecified),inactive: 0.0304,inactive: 1.55,inactive: -0.264
NC(N)C(=O)c1ccc2c(c1)OCO2,inactive: -0.342,inactive: 0.754,inactive: -1.7
OCc1ccc(CO)o1,inactive: -1.05,inactive: 0.882,inactive: -1.03
Nc1ccc(S(=O)(=O)Nc2ccccn2)cc1,inactive: 1.34,inactive: -0.597,inactive: -1.29
CC(C)c1nc(N(C)S(C)(=O)=O)nc(-c2ccc(F)cc2)c1/C=C/[C@@H](O)C[C@@H](O)CC(=O)O [rosuvastatin calcium],inactive: -2.15,inactive: 0.631,inactive: -0.671
